Assay results as given in the supplement of paper PMC8728848.
The other results are listed elsewhere or left out.

What was measured:
Assay in all cases: glycan array binding signal (z-score within array); higher = stronger binding
Conditions in all cases: glycan notation: IUPAC condensed, linker removed
[1] = biological target: Neu5Ac(a2-6)Gal(b1-4)GlcNAc(b1-2)Man(a1-3)[Man(a1-6)]Man(b1-4)GlcNAc(b1-4)GlcNAc
How it was run: (§1)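 The binding signal is a Z-score computed within each array and averaged over linkers. Arrays of the same protein sequence at different concentrations or buffers were also averaged together. Data originate from 3228 arrays in the Consortium for Functional Glycomics database, kept only where the protein sequence was available.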

[2] = biological target: Neu5Ac(a2-6)Gal(b1-4)GlcNAc(b1-2)Man(a1-3)[Neu5Ac(a2-3)Gal(b1-4)GlcNAc(b1-2)Man(a1-6)]Man(b1-4)GlcNAc(b1-4)GlcNAc
How it was run: as §1

[3] = biological target: Neu5Ac(a2-6)Gal(b1-4)GlcNAc(b1-2)Man(a1-3)[Neu5Ac(a2-6)Gal(b1-4)GlcNAc(b1-2)Man(a1-6)]Man(b1-4)GlcNAc(b1-4)GlcNAc
How it was run: as §1

[4] = biological target: Neu5Ac(a2-6)Gal(b1-4)GlcNAc(b1-2)Man(a1-3)[Neu5Ac(a2-6)Gal(b1-4)GlcNAc(b1-2)Man(a1-6)]Man(b1-4)GlcNAc(b1-4)[Fuc(a1-6)]GlcNAc
How it was run: as §1

[5] = biological target: Neu5Ac(a2-6)Gal(b1-4)GlcNAc(b1-2)Man(a1-6)Man(b1-4)GlcNAc(b1-4)GlcNAc
How it was run: as §1

[6] = biological target: Neu5Ac(a2-6)Gal(b1-4)GlcNAc(b1-2)Man(a1-6)[Gal(b1-4)GlcNAc(b1-2)Man(a1-3)]Man(b1-4)GlcNAc(b1-4)GlcNAc
How it was run: as §1

[7] = biological target: Neu5Ac(a2-6)Gal(b1-4)GlcNAc(b1-2)Man(a1-6)[GlcNAc(b1-2)Man(a1-3)]Man(b1-4)GlcNAc(b1-4)GlcNAc
How it was run: as §1

[8] = biological target: Neu5Ac(a2-6)Gal(b1-4)GlcNAc(b1-2)Man(a1-6)[Man(a1-3)]Man(b1-4)GlcNAc(b1-4)GlcNAc
How it was run: as §1

[9] = biological target: Neu5Ac(a2-6)Gal(b1-4)GlcNAc(b1-2)[Neu5Ac(a2-6)Gal(b1-4)GlcNAc(b1-4)]Man(a1-3)[GlcNAc(b1-4)][Neu5Ac(a2-6)Gal(b1-4)GlcNAc(b1-2)[Neu5Ac(a2-6)Gal(b1-4)GlcNAc(b1-6)]Man(a1-6)]Man(b1-4)GlcNAc(b1-4)GlcNAc
How it was run: as §1

[10] = biological target: Neu5Ac(a2-6)Gal(b1-4)GlcNAc(b1-2)[Neu5Ac(a2-6)Gal(b1-4)GlcNAc(b1-4)]Man(a1-3)[GlcNAc(b1-4)][Neu5Ac(a2-6)Gal(b1-4)GlcNAc(b1-4)Man(a1-6)]Man(b1-4)GlcNAc(b1-4)GlcNAc
How it was run: as §1

[11] = biological target: Neu5Ac(a2-6)Gal(b1-4)GlcNAc(b1-2)[Neu5Ac(a2-6)Gal(b1-4)GlcNAc(b1-6)]Man(a1-6)[Neu5Ac(a2-6)Gal(b1-4)GlcNAc(b1-2)Man(a1-3)][GlcNAc(b1-4)]Man(b1-4)GlcNAc(b1-4)GlcNAc
How it was run: as §1

[12] = biological target: Neu5Ac(a2-6)Gal(b1-4)GlcNAc(b1-3)Gal(b1-3)GlcNAc
How it was run: as §1

[13] = biological target: Neu5Ac(a2-6)Gal(b1-4)GlcNAc(b1-3)Gal(b1-4)GlcNAc
How it was run: as §1

[14] = biological target: Neu5Ac(a2-6)Gal(b1-4)GlcNAc(b1-3)Gal(b1-4)GlcNAc(b1-2)Man(a1-3)[Neu5Ac(a2-6)Gal(b1-4)GlcNAc(b1-3)Gal(b1-4)GlcNAc(b1-2)Man(a1-6)]GalNAc
How it was run: as §1

[15] = biological target: Neu5Ac(a2-6)Gal(b1-4)GlcNAc(b1-3)Gal(b1-4)GlcNAc(b1-3)Gal(b1-4)GlcNAc
How it was run: as §1

[16] = biological target: Neu5Ac(a2-6)Gal(b1-4)GlcNAc(b1-3)Gal(b1-4)GlcNAc(b1-3)Gal(b1-4)GlcNAc(b1-2)Man(a1-3)[Neu5Ac(a2-6)Gal(b1-4)GlcNAc(b1-3)Gal(b1-4)GlcNAc(b1-3)Gal(b1-4)GlcNAc(b1-2)Man(a1-6)]GalNAc
How it was run: as §1

[17] = biological target: Neu5Ac(a2-6)Gal(b1-4)GlcNAc(b1-3)Gal(b1-4)GlcNAc(b1-3)GalNAc
How it was run: as §1

[18] = biological target: Neu5Ac(a2-6)Gal(b1-4)GlcNAc(b1-3)Gal(b1-4)GlcNAc(b1-3)[Neu5Ac(a2-6)Gal(b1-4)GlcNAc(b1-3)Gal(b1-4)GlcNAc(b1-6)]GalNAc
How it was run: as §1

[19] = biological target: Neu5Ac(a2-6)Gal(b1-4)GlcNAc(b1-3)Gal(b1-4)GlcNAc(b1-6)[Gal(b1-3)]GalNAc
How it was run: as §1

[20] = biological target: Neu5Ac(a2-6)Gal(b1-4)GlcNAc(b1-3)Gal(b1-4)[Fuc(a1-3)]GlcNAc(b1-3)Gal(b1-4)[Fuc(a1-3)]GlcNAc
How it was run: as §1

[21] = biological target: Neu5Ac(a2-6)Gal(b1-4)GlcNAc(b1-3)GalNAc
How it was run: as §1

[22] = biological target: Neu5Ac(a2-6)Gal(b1-4)GlcNAc(b1-3)[Neu5Ac(a2-6)Gal(b1-4)GlcNAc(b1-6)]GalNAc
How it was run: as §1

[23] = biological target: Neu5Ac(a2-6)Gal(b1-4)GlcNAc(b1-6)GalNAc
How it was run: as §1

[24] = biological target: Neu5Ac(a2-6)Gal(b1-4)GlcNAc(b1-6)[Gal(b1-3)GlcNAc(b1-3)]Gal(b1-4)Glc
How it was run: as §1

[25] = biological target: Neu5Ac(a2-6)Gal(b1-4)GlcNAc(b1-6)[Gal(b1-3)]GalNAc
How it was run: as §1

[26] = biological target: Neu5Ac(a2-6)Gal(b1-4)GlcNAc6S
How it was run: as §1

Neu5Ac(a2-6)GalNAc = biological target: Neu5Ac(a2-6)GalNAc
How it was run: as §1

[27] = biological target: Neu5Ac(a2-6)GalNAc(b1-4)GlcNAc
How it was run: as §1

[28] = biological target: Neu5Ac(a2-6)GalNAc(b1-4)GlcNAc6S
How it was run: as §1

[29] = biological target: Neu5Ac(a2-6)GlcNAc(b1-4)GlcNAc
How it was run: as §1

[30] = biological target: Neu5Ac(a2-6)GlcNAc(b1-4)GlcNAc(b1-4)GlcNAc
How it was run: as §1

B1: MXA PilAct-eGFP (Myxococcus xanthus), Q59589 (protein)
chain: MRVSRFNPRNRGFTLIELMIVVAIIGILAAIAIPNFIKFQARSKQSEAKTNLKALYTAQKSFFSEKDRYSDFANEIGFAPERGNRYGYRVSAAAGDCEVRNAADLPVPAAGVPCISNDSFRFGANSAIDDPTPVVARFVPQGAAGWNTTLGVQPTIADCPNCNFFAGARGNADNEATFDDWVIAGFEGSGQVGPCSEAGNVASGTPYNTRNDVACDGAAQ
- glycan array binding signal (z-score) [1]: 3.09
- glycan array binding signal (z-score) [2]: -0.606
- glycan array binding signal (z-score) [3]: 0.119
- glycan array binding signal (z-score) [4]: 0.932
- glycan array binding signal (z-score) [5]: 2.91
- glycan array binding signal (z-score) [6]: 0.444
- glycan array binding signal (z-score) [7]: -0.384
- glycan array binding signal (z-score) [8]: 1.24
- glycan array binding signal (z-score) [9]: -0.369
- glycan array binding signal (z-score) [10]: -0.544
- glycan array binding signal (z-score) [11]: 0.894
- glycan array binding signal (z-score) [12]: 1.4
- glycan array binding signal (z-score) [13]: -0.602
- glycan array binding signal (z-score) [14]: -0.98
- glycan array binding signal (z-score) [15]: -0.139
- glycan array binding signal (z-score) [16]: -0.044
- glycan array binding signal (z-score) [17]: -0.204
- glycan array binding signal (z-score) [18]: -0.119
- glycan array binding signal (z-score) [19]: -0.151
- glycan array binding signal (z-score) [20]: 0.282
- glycan array binding signal (z-score) [21]: -0.438
- glycan array binding signal (z-score) [22]: 0.158
- glycan array binding signal (z-score) [23]: -0.751
- glycan array binding signal (z-score) [24]: 0.909
- glycan array binding signal (z-score) [25]: -0.019
- glycan array binding signal (z-score) [26]: -0.252
- glycan array binding signal (z-score) (Neu5Ac(a2-6)GalNAc): -0.682
- glycan array binding signal (z-score) [27]: -0.136
- glycan array binding signal (z-score) [28]: 0.083
- glycan array binding signal (z-score) [29]: -0.184
- glycan array binding signal (z-score) [30]: -0.645
